# Assay results as given in the supplement of paper PMC10849652.
# The chains behind the UniProt entries cited, without tags or fusion partners. Where a name states a change or a piece, a line headed by the entry shows the natural chain unless it says otherwise.
# UniProt O95363: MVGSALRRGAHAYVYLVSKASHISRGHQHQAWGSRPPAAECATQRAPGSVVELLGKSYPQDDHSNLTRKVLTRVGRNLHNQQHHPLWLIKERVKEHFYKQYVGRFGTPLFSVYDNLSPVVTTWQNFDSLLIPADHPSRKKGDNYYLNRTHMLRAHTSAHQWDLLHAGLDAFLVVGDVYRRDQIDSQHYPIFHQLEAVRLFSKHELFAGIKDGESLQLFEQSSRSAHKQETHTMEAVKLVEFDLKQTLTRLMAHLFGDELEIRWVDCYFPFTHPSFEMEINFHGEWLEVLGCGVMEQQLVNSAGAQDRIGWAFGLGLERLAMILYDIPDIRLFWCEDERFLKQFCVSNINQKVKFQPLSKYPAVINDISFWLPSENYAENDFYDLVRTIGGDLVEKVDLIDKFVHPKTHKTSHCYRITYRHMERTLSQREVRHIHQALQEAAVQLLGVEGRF
# UniProt Q9H4M3: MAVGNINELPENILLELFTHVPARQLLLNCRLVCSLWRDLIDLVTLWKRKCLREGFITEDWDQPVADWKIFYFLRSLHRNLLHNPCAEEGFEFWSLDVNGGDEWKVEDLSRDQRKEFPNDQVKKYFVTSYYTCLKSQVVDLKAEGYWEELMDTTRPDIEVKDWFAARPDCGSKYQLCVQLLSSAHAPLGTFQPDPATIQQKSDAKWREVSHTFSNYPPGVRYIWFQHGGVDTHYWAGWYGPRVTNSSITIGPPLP
# UniProt Q9BSK4: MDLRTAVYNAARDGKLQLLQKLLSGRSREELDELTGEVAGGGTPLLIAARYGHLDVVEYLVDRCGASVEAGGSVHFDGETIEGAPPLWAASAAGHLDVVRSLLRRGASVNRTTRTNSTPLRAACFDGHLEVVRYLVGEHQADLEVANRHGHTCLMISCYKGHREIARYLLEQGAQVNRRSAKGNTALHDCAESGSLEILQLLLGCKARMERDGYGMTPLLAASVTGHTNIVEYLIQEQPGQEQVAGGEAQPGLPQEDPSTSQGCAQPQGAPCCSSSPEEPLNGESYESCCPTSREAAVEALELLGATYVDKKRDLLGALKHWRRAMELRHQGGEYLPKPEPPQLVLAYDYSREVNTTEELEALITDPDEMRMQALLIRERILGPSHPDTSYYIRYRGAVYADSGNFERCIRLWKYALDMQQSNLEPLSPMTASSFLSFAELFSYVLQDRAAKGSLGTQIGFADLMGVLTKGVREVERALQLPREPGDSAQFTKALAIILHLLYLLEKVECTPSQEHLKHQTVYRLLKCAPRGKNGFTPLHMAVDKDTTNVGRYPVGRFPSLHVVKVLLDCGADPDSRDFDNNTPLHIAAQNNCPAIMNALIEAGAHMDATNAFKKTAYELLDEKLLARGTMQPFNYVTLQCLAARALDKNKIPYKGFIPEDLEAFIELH
# UniProt Q9P0K8: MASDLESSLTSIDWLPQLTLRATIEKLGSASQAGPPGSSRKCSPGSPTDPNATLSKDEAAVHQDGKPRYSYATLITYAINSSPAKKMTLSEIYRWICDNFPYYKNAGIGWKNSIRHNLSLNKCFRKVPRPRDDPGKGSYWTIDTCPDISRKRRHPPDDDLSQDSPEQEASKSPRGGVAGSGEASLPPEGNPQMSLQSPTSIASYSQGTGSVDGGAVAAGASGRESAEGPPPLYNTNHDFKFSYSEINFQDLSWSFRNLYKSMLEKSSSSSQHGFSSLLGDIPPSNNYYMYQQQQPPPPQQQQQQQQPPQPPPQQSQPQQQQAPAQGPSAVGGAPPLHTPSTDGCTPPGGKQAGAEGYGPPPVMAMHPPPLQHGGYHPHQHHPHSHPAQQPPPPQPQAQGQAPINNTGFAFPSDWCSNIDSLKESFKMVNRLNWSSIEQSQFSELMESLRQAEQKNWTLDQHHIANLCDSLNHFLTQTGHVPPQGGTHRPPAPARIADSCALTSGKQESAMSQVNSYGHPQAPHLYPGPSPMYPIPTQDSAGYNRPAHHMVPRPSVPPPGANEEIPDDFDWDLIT
# UniProt Q9NW38: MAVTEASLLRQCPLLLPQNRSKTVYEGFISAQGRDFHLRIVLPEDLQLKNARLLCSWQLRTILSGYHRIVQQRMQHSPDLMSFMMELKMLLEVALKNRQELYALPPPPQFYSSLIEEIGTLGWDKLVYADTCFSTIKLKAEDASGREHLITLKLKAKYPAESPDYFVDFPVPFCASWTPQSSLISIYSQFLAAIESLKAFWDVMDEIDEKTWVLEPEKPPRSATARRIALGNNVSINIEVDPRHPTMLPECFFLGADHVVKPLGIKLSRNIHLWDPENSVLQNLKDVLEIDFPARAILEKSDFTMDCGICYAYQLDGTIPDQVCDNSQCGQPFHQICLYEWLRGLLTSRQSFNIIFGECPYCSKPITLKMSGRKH
# UniProt B1AJZ9: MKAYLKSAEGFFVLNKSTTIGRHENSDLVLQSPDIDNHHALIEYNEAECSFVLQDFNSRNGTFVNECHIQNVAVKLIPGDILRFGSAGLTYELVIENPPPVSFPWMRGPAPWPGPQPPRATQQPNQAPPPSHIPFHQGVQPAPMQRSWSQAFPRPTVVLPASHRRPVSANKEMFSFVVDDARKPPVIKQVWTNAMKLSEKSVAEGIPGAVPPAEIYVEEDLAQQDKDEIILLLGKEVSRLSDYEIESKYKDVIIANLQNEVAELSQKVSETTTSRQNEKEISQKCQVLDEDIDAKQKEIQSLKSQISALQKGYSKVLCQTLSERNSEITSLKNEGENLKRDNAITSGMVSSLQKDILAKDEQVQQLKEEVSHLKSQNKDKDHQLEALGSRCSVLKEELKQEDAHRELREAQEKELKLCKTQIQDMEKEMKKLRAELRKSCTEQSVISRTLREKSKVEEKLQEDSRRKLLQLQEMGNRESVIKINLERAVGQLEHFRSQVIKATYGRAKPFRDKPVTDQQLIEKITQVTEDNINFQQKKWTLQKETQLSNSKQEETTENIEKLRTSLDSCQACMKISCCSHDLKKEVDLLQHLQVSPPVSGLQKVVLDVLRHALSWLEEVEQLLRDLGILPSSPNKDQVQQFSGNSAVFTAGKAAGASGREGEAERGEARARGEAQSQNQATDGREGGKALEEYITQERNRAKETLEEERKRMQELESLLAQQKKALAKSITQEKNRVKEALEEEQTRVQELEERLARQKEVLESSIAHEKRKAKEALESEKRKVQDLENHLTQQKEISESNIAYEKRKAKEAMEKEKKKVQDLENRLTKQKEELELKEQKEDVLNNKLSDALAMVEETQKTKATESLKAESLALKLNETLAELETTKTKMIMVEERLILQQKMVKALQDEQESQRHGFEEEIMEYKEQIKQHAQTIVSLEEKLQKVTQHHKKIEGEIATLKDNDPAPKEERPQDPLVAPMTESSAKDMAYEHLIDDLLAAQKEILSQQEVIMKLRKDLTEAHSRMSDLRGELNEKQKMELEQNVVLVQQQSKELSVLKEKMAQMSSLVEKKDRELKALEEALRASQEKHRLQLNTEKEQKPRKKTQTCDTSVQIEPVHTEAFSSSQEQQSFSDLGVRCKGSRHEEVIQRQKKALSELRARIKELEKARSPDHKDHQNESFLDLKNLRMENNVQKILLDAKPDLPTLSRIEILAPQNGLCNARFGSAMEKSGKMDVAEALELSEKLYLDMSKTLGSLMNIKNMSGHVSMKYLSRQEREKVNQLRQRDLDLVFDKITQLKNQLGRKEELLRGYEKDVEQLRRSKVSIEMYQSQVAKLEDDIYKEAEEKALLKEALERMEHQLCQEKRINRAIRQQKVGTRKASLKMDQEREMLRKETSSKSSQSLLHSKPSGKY
# UniProt Q92913: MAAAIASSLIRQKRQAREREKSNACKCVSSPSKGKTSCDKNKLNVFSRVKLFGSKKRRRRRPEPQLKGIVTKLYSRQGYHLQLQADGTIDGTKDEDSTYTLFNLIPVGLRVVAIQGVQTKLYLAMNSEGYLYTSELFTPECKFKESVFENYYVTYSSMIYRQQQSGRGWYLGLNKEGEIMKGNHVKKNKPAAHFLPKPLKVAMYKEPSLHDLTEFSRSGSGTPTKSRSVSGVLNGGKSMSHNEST
# UniProt Q6PCT2: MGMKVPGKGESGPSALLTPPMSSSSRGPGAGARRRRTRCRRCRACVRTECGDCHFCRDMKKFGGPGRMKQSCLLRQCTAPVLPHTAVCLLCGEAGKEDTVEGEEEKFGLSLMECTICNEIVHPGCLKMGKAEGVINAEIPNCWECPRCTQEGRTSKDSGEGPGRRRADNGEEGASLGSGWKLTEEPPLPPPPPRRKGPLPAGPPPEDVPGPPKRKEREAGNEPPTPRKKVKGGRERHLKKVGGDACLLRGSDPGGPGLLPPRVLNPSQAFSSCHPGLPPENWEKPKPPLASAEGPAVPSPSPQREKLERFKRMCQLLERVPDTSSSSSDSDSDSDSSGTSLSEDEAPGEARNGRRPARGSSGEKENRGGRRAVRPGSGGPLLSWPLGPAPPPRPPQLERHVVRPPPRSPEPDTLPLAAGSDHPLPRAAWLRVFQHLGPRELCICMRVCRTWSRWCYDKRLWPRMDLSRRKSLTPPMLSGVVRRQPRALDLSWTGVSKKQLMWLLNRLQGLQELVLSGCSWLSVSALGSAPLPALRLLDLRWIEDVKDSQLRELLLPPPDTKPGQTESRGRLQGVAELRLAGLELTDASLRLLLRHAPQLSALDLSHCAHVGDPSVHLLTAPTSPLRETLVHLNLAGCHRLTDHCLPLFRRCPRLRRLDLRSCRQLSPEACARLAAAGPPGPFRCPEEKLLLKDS
# UniProt Q53R41: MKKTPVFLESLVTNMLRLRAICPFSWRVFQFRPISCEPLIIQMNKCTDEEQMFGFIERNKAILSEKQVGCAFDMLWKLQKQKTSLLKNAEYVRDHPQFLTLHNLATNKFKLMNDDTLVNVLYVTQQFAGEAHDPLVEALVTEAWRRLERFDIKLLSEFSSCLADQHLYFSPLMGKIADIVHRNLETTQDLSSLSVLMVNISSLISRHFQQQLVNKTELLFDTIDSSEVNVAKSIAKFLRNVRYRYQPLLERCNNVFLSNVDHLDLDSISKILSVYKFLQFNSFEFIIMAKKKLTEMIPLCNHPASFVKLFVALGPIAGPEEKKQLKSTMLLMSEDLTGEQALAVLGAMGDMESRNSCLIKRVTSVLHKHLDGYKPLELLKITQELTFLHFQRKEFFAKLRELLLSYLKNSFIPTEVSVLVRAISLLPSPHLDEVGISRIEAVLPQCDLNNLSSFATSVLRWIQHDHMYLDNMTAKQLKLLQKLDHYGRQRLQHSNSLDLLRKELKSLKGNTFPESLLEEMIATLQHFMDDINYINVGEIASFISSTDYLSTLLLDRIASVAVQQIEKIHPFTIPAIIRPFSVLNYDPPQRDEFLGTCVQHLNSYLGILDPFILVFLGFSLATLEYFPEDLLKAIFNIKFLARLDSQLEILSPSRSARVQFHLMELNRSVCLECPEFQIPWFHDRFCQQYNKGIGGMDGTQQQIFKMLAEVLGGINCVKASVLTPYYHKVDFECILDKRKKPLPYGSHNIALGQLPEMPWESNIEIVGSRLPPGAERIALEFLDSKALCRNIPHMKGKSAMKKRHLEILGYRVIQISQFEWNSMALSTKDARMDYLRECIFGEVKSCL
# UniProt Q96NB1: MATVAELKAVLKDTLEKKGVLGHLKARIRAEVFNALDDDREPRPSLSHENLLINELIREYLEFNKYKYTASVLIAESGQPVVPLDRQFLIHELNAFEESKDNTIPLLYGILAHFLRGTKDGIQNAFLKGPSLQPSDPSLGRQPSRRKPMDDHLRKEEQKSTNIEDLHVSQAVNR
# This is one part of the list.
# How the values were obtained:
# Experiment in all cases: log2 fold change, soluble protein after heating vs DMSO (PISA); higher = thermal stabilisation; K562 lysate, 10 uM; active = over 0.2 and 3.5 SD of the protein, either way, in both replicates (recomputed)
# [1] = compound: C#Cc1cccc(Nc2ncnc3cc(OCCOC)c(OCCOC)cc23)c1 [erlotinib]
# How it was run: (§1)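 K562 pellets were dounce-homogenised in PBS pH 7.4 containing 1 mM MgCl2, and the crude extract, at 1 mg/mL protein, was exposed to 10 μM compound for 30 min. Aliquots were heated for 3 min across 48°C-58°C, pooled, brought to 0.5% NP-40 at 4°C and spun at 21,000xg for 90 min, with the supernatant taken as soluble protein. TMTpro 16plex LC-MS/MS with equalised channel sums quantified that protein. Values are log-two fold changes in thermal stability relative to solvent controls, taken from duplicates.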
# [2] = compound: C/C(=N\NC(=O)C1=CC(=CC=C1)S(=O)(=O)N2CCOCC2)/C3=C(C=CC(=C3)Cl)O
# How it was run: as §1
# [3] = compound: C1=CC(=CC=C1C2=NC3=C(N2)C=C(C=C3)C(=O)N)OC4=CC=C(C=C4)Cl
# How it was run: as §1
# [4] = compound: C1=CC2=C(C=CC(=C2)/C=C\3/C(=O)NC(=NCC4=CC=CS4)S3)N=C1
# How it was run: as §1
# [5] = compound: C1=CC2=NC=CN=C2C=C1/C=C/3\C(=O)NC(=O)S3
# How it was run: as §1
# [6] = compound: C1=CC=C(C=C1)C2=NC(=C(N2)C3=CC=NC=C3)C4=CC(=C(C=C4)Cl)O
# How it was run: as §1
# [7] = compound: C1=CC=C2C(=C1)C3=NNC4=CC=CC(=C43)C2=O
# How it was run: as §1
# [8] = compound: C1CCN(C1)C(=O)NC2=CC=CC(=C2)NC3=NC=C(C(=N3)NCCC4=CN=CN4)Br
# How it was run: as §1
# [9] = compound: C1CN(CCC1(CC2=CC=C(C=C2)Cl)N)C3=NC=NC4=C3C=CN4
# How it was run: as §1
# [10] = compound: C1COCCN1CCN2C3=CC=CC=C3N=C2NC(=O)C4=CC(=CC=C4)[N+](=O)[O-] [IRAK-1-4 Inhibitor I]
# How it was run: as §1
# [11] = compound: C=CC(=O)N1CCC[C@@H](n2nc(-c3ccc(Oc4ccccc4)cc3)c3c(N)ncnc32)C1 [ibrutinib]
# How it was run: as §1
# [12] = compound: CC(=O)c1cnc2ccc(-c3cc(Cl)c(O)c(Cl)c3)nc2c1N[C@H]1CC[C@H](CN(C)C)CC1
# How it was run: as §1
# [13] = compound: CC(C)(C)Cn1c(N)nc2ccc(-c3[nH]c(C(C)(C)C)nc3-c3ccc(F)cc3)nc21 [ralimetinib]
# How it was run: as §1
# [14] = compound: CC(C)(O)CC(=O)NCCn1ccc2ncnc(Nc3ccc(Oc4cccc(C(F)(F)F)c4)c(Cl)c3)c21
# How it was run: as §1
# [15] = compound: CC(C)C1=C2N=C(C=C(N2N=C1)NCC3=CC=CC=C3)NCCCCCCN
# How it was run: as §1
# [16] = compound: CC1=C(C(CC(=O)N1)C2=CC=C(C=C2)C(F)(F)F)C(=O)NC3=C(C=C4C(=C3)C=NN4)F
# How it was run: as §1
# [17] = compound: CC1=C(C=C(C=C1)NC(=O)C2=CC(=CC=C2)C(C)(C)C#N)NC3=CC4=C(C=C3)N=CN(C4=O)C
# How it was run: as §1
# [18] = compound: CC1=C(C=C(C=C1)NC(=O)C2=CC(=CC=C2)N(C)C)NC(=O)C3=CC=C(C=C3)O
# How it was run: as §1
# [19] = compound: CC1=CC=C(C=C1)SC2=C3C=C(SC3=CN=C2)C(=O)N
# How it was run: as §1
# [20] = compound: CC1=C(C2=C(C=C1)C(=O)C3=CC=CC=C3N2CCCN)C
# How it was run: as §1
Target,log2 fold change [1],log2 fold change [2],log2 fold change [3],log2 fold change [4],log2 fold change [5],log2 fold change [6],log2 fold change [7],log2 fold change [8],log2 fold change [9],log2 fold change [10],log2 fold change [11],log2 fold change [12],log2 fold change [13],log2 fold change [14],log2 fold change [15],log2 fold change [16],log2 fold change [17],log2 fold change [18],log2 fold change [19],log2 fold change [20]
FARS2 (UniProt O95363),inactive: -0.029,inactive: -0.058,inactive: -0.128,inactive: -0.006,inactive: -0.12,inactive: -0.094,inactive: -0.12,inactive: 0.087,inactive: 0.11,inactive: 0.19,inactive: 0.007,inactive: -0.412,inactive: 0.037,inactive: 0.011,inactive: 0.057,inactive: -0.154,inactive: 0.022,inactive: 0.053,inactive: -0.038,
FBXO44 isoform 2 (UniProt Q9H4M3),inactive: 0.077,inactive: -0.152,inactive: 0.135,inactive: -0.011,inactive: 0.128,inactive: 0.03,inactive: -0.047,,,inactive: -0.104,inactive: 0.09,inactive: 0.064,inactive: -0.124,inactive: 0.134,inactive: -0.073,inactive: 0.074,,inactive: 0.112,inactive: 0.04,inactive: 0.048
FEM1A (UniProt Q9BSK4),inactive: -0.024,inactive: 0.018,inactive: 0.04,inactive: -0.042,,inactive: 0.193,inactive: -0.059,inactive: 0.119,inactive: 0.09,inactive: 0.034,,inactive: -0.028,inactive: -0.147,inactive: -0.03,inactive: 0.043,inactive: 0.027,,inactive: 0.145,inactive: 0.019,
"FBRSL1, A0A3B3IRR3",inactive: -0.014,inactive: -0.021,inactive: 0.042,inactive: -0.03,inactive: 0,inactive: -0.028,inactive: -0.199,inactive: 0.043,inactive: -0.015,inactive: -0.024,inactive: 0.072,,inactive: 0.027,inactive: 0.008,inactive: -0.075,inactive: -0.01,active: -0.381,inactive: 0.012,,inactive: 0.183
FOXJ2 (UniProt Q9P0K8),inactive: 0.102,,inactive: 0.056,,inactive: 0.139,inactive: 0.026,,inactive: 0.138,inactive: -0.036,inactive: -0.03,inactive: -0.045,,inactive: 0.02,inactive: -0.035,inactive: 0.091,inactive: 0.041,,inactive: 0.108,,inactive: -0.129
FANCL isoform 2 (UniProt Q9NW38),inactive: 0.013,,inactive: -0.039,,inactive: 0.037,inactive: 0.068,,inactive: 0.122,inactive: -0.054,inactive: 0.046,inactive: 0.008,inactive: -0.327,inactive: 0.051,inactive: 0.002,inactive: -0.04,inactive: -0.055,inactive: 0.128,inactive: -0.025,inactive: -0.113,inactive: -0.068
FHAD1 isoform 3 (UniProt B1AJZ9),inactive: 0.091,inactive: 0.01,inactive: 0.174,inactive: -0.124,,inactive: 0.075,inactive: -0.107,inactive: -0.085,inactive: 0.077,inactive: 0.115,,inactive: -0.139,inactive: -0.162,inactive: -0.232,inactive: 0.059,,,inactive: 0,inactive: -0.088,inactive: -0.098
FGF13 isoform 3 (UniProt Q92913),inactive: 0.026,,inactive: 0,,inactive: 0.006,inactive: -0.029,,inactive: 0.03,inactive: -0.092,inactive: 0.026,inactive: -0.013,inactive: -0.016,inactive: 0.019,inactive: -0.057,inactive: 0.001,inactive: -0.011,inactive: -0.008,inactive: 0.145,inactive: -0.007,inactive: 0.001
FAT1 (UniProt Q14517),inactive: -0.004,,inactive: 0.006,,,inactive: 0.126,,inactive: -0.119,inactive: 0.128,inactive: -0.053,,inactive: -0.109,inactive: -0.034,inactive: -0.016,inactive: -0.05,,inactive: 0.188,inactive: 0.024,inactive: -0.105,
FARP1 isoform 2 (UniProt Q9Y4F1),,inactive: 0.043,,inactive: 0.019,inactive: 0.095,inactive: 0.088,inactive: -0.057,inactive: -0.02,inactive: 0.054,inactive: -0.031,inactive: -0.087,,inactive: 0.072,inactive: 0.044,,,inactive: 0.069,inactive: 0.079,,inactive: 0.096
FBXL19 (UniProt Q6PCT2),inactive: -0.072,,inactive: -0.1,,,inactive: 0.128,,,,inactive: -0.101,,,inactive: -0.042,inactive: 0.034,inactive: 0.176,,inactive: 0.078,inactive: -0.223,,
FASTKD1 (UniProt Q53R41),inactive: 0.011,inactive: -0.033,inactive: -0.146,inactive: -0.03,,inactive: 0.015,inactive: -0.027,inactive: -0.017,inactive: -0.017,inactive: -0.028,,,inactive: 0.035,inactive: -0.114,inactive: 0.018,inactive: 0.009,inactive: 0.026,inactive: 0.065,,inactive: -0.021
FOPNL (UniProt Q96NB1),,inactive: -0.038,,inactive: 0.11,inactive: -0.045,inactive: 0.001,inactive: 0.039,inactive: -0.007,inactive: -0.05,inactive: 0.01,inactive: 0.165,inactive: -0.081,inactive: -0.008,inactive: -0.042,,inactive: 0.091,inactive: 0.009,inactive: 0.077,inactive: -0.104,inactive: 0.141
FLNA (UniProt H0Y5C6),inactive: -0.039,inactive: -0.247,inactive: -0.128,inactive: -0.036,,,inactive: 0.202,,,,,inactive: 0.11,,,inactive: -0.106,,,,inactive: 0.01,inactive: -0.122

# Individual results from the list.
# FOXJ2 (UniProt Q9P0K8) – log2 fold change [15]: inactive: 0.091
# FBRSL1, A0A3B3IRR3 – log2 fold change [11]: inactive: 0.072
